According to patent US8299262B2, “Pyridylmethyl-sulfonamide compounds” (BASF SE, priority 2007, dated 2012):
Some entries share one result that the patent states for a list of compounds. For at least one compound, name, drawing or mass did not settle the structure.

Tests used:
Phytophthora infestans = type: in vivo, Phytophthora infestans on tomato plants; conditions: 250 ppm, protective spray on tomato, assessed after 6 days; untreated plants 90% infected
Puccinia recondita = test: Greenhouse test, protective action against Puccinia recondita on wheat (Use Example 16); type: in vivo, Puccinia recondita on wheat cultivar Kanzler; conditions: 250 ppm, protective spray on wheat; untreated plants 90% infected
Septoria tritici = test: Greenhouse test, protective action against Septoria tritici on wheat (Use Example 20); type: in vivo, Septoria tritici on wheat cultivar Kanzler; conditions: 250 ppm, protective spray on wheat, assessed after 21 days; untreated plants 90% infected

| SMILES | infection (% diseased leaf area) (Phytophthora infestans) | infection (Puccinia recondita) | infection (Septoria tritici) |
| --- | --- | --- | --- |
| COc1cc(CNS(=O)(=O)c2ccc(Oc3ncc(Cl)cc3F)cc2)ccn1 [Example 92] | less than or equal to 15% | less than or equal to 15% |  |
| Cc1nccc(CNS(=O)(=O)c2ccc(Oc3ncc(Cl)cc3F)cc2)c1C [Example 93] | less than or equal to 15% | less than or equal to 15% |  |
| Cc1nccc(CNS(=O)(=O)c2ccc(Oc3ncc(Cl)cc3Br)cc2)c1C [Example 97] | less than or equal to 15% | less than or equal to 15% |  |
| COc1cc(CNS(=O)(=O)c2ccc(Oc3ncc(Cl)cc3Br)cc2)ccn1 [Example 98] | less than or equal to 15% | less than or equal to 15% |  |
| Cc1cc(Cl)cnc1Oc1ccc(S(=O)(=O)NCc2ccnc(C)c2C)cc1 [Example 100] | less than or equal to 15% | less than or equal to 15% |  |
| Cc1nccc(CNS(=O)(=O)c2ccc(Oc3ccc(OC(F)F)cn3)cc2)c1C [Example 102] | less than or equal to 15% | less than or equal to 15% |  |
| Cc1cc(CNS(=O)(=O)c2ccc(Oc3ccc(C(F)(F)F)cn3)cc2)ccn1 [Example 104] | less than or equal to 15% | less than or equal to 15% |  |
| CON=C(C)c1ccc(Oc2ccc(S(=O)(=O)NCc3ccnc(OC)c3)cc2)nc1 [Example 106] | less than or equal to 15% | less than or equal to 15% |  |
| O=S(=O)(NCc1ccnc(Cl)c1)c1ccc(Oc2ccc(C(F)(F)F)cn2)cc1 [Example 117] | less than or equal to 15% | less than or equal to 15% |  |
| COc1cc(CNS(=O)(=O)c2cc(C)c(Oc3ccc(C(F)(F)F)cn3)cc2C)ccn1 [Example 127] | less than or equal to 15% | less than or equal to 15% |  |
| Cc1cc(S(=O)(=O)NCc2ccnc(C)c2C)c(C)cc1Oc1ccc(C(F)(F)F)cn1 [Example 128] | less than or equal to 15% | less than or equal to 15% |  |
| Cc1cc(C(F)(F)F)cnc1Oc1ccc(S(=O)(=O)NCc2ccncc2)cc1 [Example 159] | less than or equal to 15% | less than or equal to 15% |  |
| Cc1cc(C(F)(F)F)cnc1Oc1ccc(S(=O)(=O)NCc2ccnc(C)c2C)cc1 [Example 162] | less than or equal to 15% | less than or equal to 15% |  |
| COc1cc(CNS(=O)(=O)c2ccc(Oc3cc(C)c(C(F)(F)F)cn3)cc2)ccn1 [Example 163] | less than or equal to 15% | less than or equal to 15% |  |
| Cc1cc(Oc2ccc(S(=O)(=O)NCc3ccnc(C)c3C)cc2)ncc1C(F)(F)F [Example 164] | less than or equal to 15% | less than or equal to 15% |  |
| COc1cc(CNS(=O)(=O)c2ccc(Oc3ncccc3Cl)cc2)ccn1 [Example 165] | less than or equal to 15% | less than or equal to 15% |  |
| COc1cc(CNS(=O)(=O)c2ccc(Oc3ncc(F)cc3F)cc2)ccn1 [Example 167] | less than or equal to 15% | less than or equal to 15% |  |
| Cc1nc(C(F)(F)F)nc(Oc2ccc(S(=O)(=O)NCc3ccncc3)cc2)c1C [Example 168] | less than or equal to 15% | less than or equal to 15% |  |
| COc1cnccc1CNS(=O)(=O)c1ccc(Oc2ccnc(C(F)(F)F)n2)cc1 [Example 174] | less than or equal to 15% | less than or equal to 15% |  |
| Cc1nccc(CNS(=O)(=O)c2ccc(Oc3ccnc(C(F)(F)F)n3)cc2)c1C [Example 175] | less than or equal to 15% | less than or equal to 15% |  |
| COc1cnccc1CNS(=O)(=O)c1ccc(Oc2cc(C(F)(F)F)cc(C)n2)cc1 [Example 178] | less than or equal to 15% | less than or equal to 15% |  |
| Cc1cc(C(F)(F)F)cc(Oc2ccc(S(=O)(=O)NCc3ccnc(C)c3C)cc2)n1 [Example 179] | less than or equal to 15% | less than or equal to 15% |  |
| Cc1cc(Oc2ncc(C(F)(F)F)cc2Cl)ccc1S(=O)(=O)NCc1ccncc1 [Example 184] |  |  | less than or equal to 15% |
| Cc1cc(Oc2ncccc2C(F)(F)F)ccc1S(=O)(=O)NCc1ccnc(C)c1C [Example 195] | less than or equal to 15% | less than or equal to 15% |  |
| Cc1cc(S(=O)(=O)NCc2ccncc2)ccc1Oc1ccc(C(F)(F)F)cn1 [Example 196] | less than or equal to 15% | less than or equal to 15% |  |

| SMILES | infection (% diseased leaf area) (Phytophthora infestans) | infection (Puccinia recondita) | infection (Septoria tritici) |
| --- | --- | --- | --- |
| Cc1cc(Oc2ccc(C(F)(F)F)cn2)ccc1S(=O)(=O)NCc1ccncc1 [Example 200] | less than or equal to 15% | less than or equal to 15% |  |
| COc1cnccc1CNS(=O)(=O)c1ccc(Oc2ccc(C(F)(F)F)cn2)cc1C [Example 202] | less than or equal to 15% | less than or equal to 15% |  |
| Cc1cc(Oc2ccc(S(=O)(=O)NCc3ccncc3)cc2)ncc1C(F)(F)F [Example 208] | less than or equal to 15% | less than or equal to 15% |  |
| CCN(Cc1ccnc(C)c1C)S(=O)(=O)c1ccc(Oc2ccc(C(F)(F)F)cn2)cc1 [Example 213] | less than or equal to 15% | less than or equal to 15% |  |
| C=CCN(Cc1ccnc(C)c1C)S(=O)(=O)c1ccc(Oc2ccc(C(F)(F)F)cn2)cc1 [Example 218] | less than or equal to 15% | less than or equal to 15% |  |
| C=CCN(Cc1ccnc(C)c1C)S(=O)(=O)c1ccc(Oc2ccc(C(F)(F)F)cn2)c(C)c1 [Example 219] | less than or equal to 15% | less than or equal to 15% |  |
| COc1cc(CNS(=O)(=O)c2ccc(Oc3ccc(C(F)(F)F)cn3)c(Cl)c2)ccn1 [Example 229] | less than or equal to 15% | less than or equal to 15% |  |
| COc1c(CNS(=O)(=O)c2ccc(Oc3ncc(C(F)(F)F)cc3Cl)cc2)ccnc1C [Example 233] | less than or equal to 15% | less than or equal to 15% |  |
| O=S(=O)(NCc1ccnc2c1CCCC2)c1ccc(Oc2ncc(C(F)(F)F)cc2Cl)cc1 [Example 235] | less than or equal to 15% | less than or equal to 15% |  |
| COc1cc(CNS(=O)(=O)c2ccc(Oc3ccnc(C(F)(F)F)c3)cc2)ccn1 [Example 236] | less than or equal to 15% | less than or equal to 15% |  |
| Cc1nccc(CNS(=O)(=O)c2ccc(Oc3ccnc(C(F)(F)F)c3)cc2)c1C [Example 237] | less than or equal to 15% | less than or equal to 15% |  |
| COc1cc(CNS(=O)(=O)c2ccc(Oc3cc(C(F)(F)F)nn3C)cc2)ccn1 [Example 238] | less than or equal to 15% | less than or equal to 15% |  |
| Cc1nccc(CNS(=O)(=O)c2ccc(Oc3cc(C(F)(F)F)nn3C)cc2)c1C [Example 239] | less than or equal to 15% | less than or equal to 15% |  |
| COc1cc(CNS(=O)(=O)c2ccc(Oc3ccncc3C(F)(F)F)cc2)ccn1 [Example 245] | less than or equal to 15% | less than or equal to 15% |  |
| Cc1nccc(CNS(=O)(=O)c2ccc(Oc3ccncc3C(F)(F)F)cc2)c1C [Example 246] | less than or equal to 15% | less than or equal to 15% |  |
| CCOc1c(CNS(=O)(=O)c2ccc(Oc3ccc(C(F)(F)F)cn3)cc2)ccnc1C [Example 247] | less than or equal to 15% | less than or equal to 15% |  |
| COc1cc(CNS(=O)(=O)c2ccc(Oc3cncc4ccccc34)cc2)ccn1 [Example 251] | less than or equal to 15% | less than or equal to 15% |  |
| Cc1nccc(CNS(=O)(=O)c2ccc(Oc3cncc4ccccc34)cc2)c1C [Example 252] | less than or equal to 15% | less than or equal to 15% |  |
| COc1cc(CNS(=O)(=O)c2ccc(Oc3ccc(C)cn3)cc2)ccn1 [Example 253] | less than or equal to 15% | less than or equal to 15% |  |
| CCc1c(CNS(=O)(=O)c2ccc(Oc3ccc(C(F)(F)F)cn3)cc2)ccnc1C [Example 259] | less than or equal to 15% | less than or equal to 15% |  |
| COc1cc(CNS(=O)(=O)c2ccc(OCc3ncccc3C(F)(F)F)cc2)ccn1 [Example 269] | less than or equal to 15% | less than or equal to 15% |  |
| Cc1nccc(CNS(=O)(=O)c2ccc(OCc3ncccc3C(F)(F)F)cc2)c1C [Example 270] | less than or equal to 15% | less than or equal to 15% |  |
| COc1cc(CNS(=O)(=O)c2ccc(Oc3ccc(Cl)cn3)c(C)c2)ccn1 [Example 277] | less than or equal to 15% | less than or equal to 15% |  |
| Cc1cc(S(=O)(=O)NCc2ccnc(C)c2C)ccc1Oc1ccc(Cl)cn1 [Example 278] | less than or equal to 15% | less than or equal to 15% |  |
